Source: paper doi:10.1101/2022.07.28.501905
These are yes or no findings as the source states them, for the method shown. In cells and extracts the contact can be indirect. Binding calls can cover weak binding; strength is not graded here. Tags and fused reporters may be left off the sequences shown.

Target: GcR8IP1-HA (full length Gc-RPW8.2 interacting protein 1) (Golovinomyces cichoracearum UCSC1)
Test: co-IP

binding: binds
B1: RPW8.2-FLAG (protein, UniProt Q9C5Z6 1-174)
chain: MIAEVAAGGALGLALSVLHEAVKRAKDRSVTTRFILHRLEATIDSITPLVVQIDKFSEEMEDSTSRKVNKRLKLLLENAVSLVEENAELRRRNVRKKFRYMRDIKEFEAKLRWVVDVDVQVNQLADIKELKAKMSEISTKLDKIMPQPKFEIHIGWCSGKTNRAIRFTFCSDDS
